Experimental data from the supplement of paper PMC10849652.
The list shows a part of the results.

Chains of the proteins cited; added tags and fusions are not shown. Lines headed by an entry give the natural chain unless they say otherwise; changes in a name come on top.
UniProt P60059: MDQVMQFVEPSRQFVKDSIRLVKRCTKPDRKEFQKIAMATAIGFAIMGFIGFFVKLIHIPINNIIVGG
UniProt P36952: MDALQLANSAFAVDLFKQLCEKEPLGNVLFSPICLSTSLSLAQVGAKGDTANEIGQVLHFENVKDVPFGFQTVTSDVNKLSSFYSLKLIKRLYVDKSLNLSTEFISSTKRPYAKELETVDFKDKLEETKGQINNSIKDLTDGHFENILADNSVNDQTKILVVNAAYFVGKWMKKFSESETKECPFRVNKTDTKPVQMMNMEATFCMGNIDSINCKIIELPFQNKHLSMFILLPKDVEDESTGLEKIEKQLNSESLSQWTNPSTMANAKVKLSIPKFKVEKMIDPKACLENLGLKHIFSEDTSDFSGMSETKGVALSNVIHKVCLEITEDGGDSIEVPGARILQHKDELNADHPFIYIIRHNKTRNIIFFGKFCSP
UniProt Q9BYW2: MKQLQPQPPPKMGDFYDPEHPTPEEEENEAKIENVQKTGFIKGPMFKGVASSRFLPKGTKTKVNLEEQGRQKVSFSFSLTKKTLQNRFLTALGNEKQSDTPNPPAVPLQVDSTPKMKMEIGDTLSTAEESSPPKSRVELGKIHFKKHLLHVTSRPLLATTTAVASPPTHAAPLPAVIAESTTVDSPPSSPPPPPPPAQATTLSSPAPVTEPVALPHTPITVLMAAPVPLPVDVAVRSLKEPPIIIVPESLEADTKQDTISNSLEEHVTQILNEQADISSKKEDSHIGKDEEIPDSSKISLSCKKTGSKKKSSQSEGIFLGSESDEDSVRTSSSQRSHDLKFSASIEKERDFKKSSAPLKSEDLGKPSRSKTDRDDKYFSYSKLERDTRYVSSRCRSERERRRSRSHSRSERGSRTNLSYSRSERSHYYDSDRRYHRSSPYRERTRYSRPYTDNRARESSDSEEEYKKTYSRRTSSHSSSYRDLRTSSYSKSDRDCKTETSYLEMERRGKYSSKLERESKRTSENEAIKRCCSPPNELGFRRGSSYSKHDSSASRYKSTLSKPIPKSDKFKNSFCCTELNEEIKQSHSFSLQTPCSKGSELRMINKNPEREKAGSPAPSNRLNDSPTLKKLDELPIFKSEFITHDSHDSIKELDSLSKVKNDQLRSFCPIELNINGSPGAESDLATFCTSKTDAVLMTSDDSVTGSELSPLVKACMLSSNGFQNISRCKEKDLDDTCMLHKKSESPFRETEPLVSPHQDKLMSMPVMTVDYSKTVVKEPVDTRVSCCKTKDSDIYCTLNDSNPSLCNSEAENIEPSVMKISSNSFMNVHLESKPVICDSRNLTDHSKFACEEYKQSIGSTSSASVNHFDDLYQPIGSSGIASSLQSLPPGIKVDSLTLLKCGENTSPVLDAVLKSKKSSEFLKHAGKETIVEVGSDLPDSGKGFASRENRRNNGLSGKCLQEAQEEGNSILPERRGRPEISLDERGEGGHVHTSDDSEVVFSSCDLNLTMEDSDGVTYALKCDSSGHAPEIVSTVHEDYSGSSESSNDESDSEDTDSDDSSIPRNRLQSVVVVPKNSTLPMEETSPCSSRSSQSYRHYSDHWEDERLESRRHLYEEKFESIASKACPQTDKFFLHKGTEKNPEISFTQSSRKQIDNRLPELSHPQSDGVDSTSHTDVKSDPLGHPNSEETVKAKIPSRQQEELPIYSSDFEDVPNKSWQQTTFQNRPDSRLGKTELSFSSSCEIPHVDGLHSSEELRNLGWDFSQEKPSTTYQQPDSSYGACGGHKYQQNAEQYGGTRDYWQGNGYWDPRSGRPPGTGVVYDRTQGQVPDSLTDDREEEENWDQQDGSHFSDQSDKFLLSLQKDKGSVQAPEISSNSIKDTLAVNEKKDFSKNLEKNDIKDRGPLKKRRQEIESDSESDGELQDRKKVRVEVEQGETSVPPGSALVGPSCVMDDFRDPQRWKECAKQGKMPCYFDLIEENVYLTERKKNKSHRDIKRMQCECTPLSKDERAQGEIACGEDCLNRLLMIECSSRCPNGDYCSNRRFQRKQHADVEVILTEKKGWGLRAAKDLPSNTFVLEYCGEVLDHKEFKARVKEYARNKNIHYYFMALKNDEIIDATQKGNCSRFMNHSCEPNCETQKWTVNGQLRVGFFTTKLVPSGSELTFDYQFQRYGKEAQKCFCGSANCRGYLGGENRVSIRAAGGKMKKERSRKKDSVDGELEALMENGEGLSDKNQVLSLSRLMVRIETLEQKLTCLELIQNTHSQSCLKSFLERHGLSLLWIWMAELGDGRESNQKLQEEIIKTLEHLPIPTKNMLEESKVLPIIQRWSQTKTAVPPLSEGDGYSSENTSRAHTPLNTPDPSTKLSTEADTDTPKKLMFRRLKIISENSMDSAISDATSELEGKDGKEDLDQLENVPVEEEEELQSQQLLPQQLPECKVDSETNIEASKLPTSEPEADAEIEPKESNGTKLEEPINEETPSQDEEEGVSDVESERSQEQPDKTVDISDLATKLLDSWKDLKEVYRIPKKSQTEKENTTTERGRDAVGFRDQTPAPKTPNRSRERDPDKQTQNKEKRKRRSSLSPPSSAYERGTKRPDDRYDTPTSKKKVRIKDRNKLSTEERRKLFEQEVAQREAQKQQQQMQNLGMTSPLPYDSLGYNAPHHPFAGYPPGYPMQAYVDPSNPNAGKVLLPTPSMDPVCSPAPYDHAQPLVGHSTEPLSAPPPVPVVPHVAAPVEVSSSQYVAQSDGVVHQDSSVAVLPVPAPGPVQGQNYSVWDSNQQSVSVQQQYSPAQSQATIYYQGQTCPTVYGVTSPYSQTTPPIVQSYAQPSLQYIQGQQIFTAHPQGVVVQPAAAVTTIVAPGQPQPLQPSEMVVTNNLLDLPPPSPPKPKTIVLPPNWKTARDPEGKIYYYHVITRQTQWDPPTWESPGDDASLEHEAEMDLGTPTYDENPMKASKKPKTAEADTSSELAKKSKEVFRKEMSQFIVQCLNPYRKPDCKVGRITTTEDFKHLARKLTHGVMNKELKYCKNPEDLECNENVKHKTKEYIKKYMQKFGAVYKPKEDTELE
UniProt Q2M3G4: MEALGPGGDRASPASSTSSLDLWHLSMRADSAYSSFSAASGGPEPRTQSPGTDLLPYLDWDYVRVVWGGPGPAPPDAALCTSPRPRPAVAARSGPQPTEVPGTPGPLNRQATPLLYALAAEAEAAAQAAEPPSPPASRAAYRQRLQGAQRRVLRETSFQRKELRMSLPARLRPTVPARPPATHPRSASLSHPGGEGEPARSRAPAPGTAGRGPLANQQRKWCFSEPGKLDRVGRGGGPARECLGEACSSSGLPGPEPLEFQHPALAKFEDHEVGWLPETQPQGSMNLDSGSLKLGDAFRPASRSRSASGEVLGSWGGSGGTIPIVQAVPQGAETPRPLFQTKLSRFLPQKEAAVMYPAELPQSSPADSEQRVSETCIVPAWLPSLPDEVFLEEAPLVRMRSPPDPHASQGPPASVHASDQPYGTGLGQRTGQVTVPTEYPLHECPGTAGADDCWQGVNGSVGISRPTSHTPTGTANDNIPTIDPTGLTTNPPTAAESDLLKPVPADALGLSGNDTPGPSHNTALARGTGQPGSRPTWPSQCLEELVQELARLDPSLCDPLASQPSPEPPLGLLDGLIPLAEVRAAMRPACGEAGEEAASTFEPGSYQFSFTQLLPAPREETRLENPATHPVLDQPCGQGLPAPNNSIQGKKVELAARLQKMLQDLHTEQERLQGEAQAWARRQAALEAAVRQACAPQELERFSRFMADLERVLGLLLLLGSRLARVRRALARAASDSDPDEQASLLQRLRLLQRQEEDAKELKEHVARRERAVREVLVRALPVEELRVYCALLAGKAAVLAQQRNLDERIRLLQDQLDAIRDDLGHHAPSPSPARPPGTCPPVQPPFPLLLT
UniProt Q8NC51: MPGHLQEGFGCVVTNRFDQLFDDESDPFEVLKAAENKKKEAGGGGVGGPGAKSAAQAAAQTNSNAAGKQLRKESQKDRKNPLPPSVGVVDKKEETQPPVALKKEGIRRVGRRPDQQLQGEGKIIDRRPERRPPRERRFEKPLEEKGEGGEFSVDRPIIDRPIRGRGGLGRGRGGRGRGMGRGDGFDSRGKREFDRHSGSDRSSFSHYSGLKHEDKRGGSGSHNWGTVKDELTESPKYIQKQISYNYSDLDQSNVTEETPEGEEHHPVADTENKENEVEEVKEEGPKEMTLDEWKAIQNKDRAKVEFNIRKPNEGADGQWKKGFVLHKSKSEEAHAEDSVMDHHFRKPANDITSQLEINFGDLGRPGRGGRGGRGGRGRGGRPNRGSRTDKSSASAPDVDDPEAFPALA
UniProt O43255: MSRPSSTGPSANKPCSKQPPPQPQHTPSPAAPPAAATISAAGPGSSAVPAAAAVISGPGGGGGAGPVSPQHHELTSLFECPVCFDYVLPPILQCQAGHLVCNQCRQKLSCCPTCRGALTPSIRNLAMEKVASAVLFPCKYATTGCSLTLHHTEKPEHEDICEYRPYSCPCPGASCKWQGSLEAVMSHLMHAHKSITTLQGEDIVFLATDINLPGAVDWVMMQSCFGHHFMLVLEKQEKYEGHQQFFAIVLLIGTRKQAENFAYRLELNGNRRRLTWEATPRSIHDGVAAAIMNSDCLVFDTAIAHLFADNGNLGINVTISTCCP
UniProt Q16181: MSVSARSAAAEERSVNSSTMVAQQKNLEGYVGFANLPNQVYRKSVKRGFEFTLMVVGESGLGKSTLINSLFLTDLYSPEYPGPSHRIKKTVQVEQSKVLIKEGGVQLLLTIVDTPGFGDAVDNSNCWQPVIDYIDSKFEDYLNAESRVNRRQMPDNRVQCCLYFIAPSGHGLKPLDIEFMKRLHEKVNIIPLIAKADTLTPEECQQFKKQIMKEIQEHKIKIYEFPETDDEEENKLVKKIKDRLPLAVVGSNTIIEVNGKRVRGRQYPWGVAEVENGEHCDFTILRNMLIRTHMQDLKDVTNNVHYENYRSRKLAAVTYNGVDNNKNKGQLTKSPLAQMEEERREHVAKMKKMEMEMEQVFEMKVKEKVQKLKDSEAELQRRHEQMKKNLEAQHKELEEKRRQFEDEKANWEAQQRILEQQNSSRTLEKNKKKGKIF
UniProt O75635: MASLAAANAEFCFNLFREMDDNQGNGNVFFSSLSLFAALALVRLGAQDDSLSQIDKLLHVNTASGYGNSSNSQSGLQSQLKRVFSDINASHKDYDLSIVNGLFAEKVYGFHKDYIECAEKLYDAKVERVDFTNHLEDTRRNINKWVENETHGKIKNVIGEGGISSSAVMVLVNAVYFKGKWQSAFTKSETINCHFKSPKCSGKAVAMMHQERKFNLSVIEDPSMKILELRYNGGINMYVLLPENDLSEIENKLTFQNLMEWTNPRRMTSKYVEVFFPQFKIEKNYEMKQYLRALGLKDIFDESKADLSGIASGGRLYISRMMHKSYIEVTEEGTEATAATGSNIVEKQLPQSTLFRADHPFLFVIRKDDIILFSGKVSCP
UniProt Q96JX3: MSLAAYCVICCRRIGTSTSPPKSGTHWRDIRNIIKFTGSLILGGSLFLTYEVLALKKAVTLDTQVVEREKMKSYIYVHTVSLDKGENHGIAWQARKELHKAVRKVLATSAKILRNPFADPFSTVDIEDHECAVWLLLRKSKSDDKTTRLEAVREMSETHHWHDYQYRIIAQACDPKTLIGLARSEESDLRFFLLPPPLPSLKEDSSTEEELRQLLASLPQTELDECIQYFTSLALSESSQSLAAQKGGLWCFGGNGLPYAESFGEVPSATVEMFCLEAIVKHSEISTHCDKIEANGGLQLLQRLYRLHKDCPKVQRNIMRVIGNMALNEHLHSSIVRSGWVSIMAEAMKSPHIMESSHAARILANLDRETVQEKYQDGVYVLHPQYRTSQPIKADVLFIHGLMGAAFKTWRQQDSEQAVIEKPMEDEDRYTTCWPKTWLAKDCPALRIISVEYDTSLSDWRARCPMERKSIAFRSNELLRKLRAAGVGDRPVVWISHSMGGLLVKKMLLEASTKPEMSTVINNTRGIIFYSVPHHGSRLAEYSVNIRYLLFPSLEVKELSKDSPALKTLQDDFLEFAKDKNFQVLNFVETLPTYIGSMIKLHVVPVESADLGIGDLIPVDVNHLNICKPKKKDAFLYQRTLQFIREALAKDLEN
UniProt P05546: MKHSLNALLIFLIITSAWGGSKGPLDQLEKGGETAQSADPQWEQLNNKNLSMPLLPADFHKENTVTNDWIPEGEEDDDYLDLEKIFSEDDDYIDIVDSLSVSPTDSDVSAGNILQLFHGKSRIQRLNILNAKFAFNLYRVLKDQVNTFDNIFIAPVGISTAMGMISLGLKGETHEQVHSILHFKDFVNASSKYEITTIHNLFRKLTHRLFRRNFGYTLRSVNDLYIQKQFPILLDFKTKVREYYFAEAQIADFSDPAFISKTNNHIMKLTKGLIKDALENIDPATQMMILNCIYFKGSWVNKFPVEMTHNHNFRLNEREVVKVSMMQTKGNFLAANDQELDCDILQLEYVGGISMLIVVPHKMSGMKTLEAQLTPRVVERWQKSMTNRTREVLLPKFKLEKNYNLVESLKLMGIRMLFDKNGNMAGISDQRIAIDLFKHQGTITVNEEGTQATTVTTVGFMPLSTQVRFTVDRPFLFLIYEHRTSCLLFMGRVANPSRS

Compound: NC(=O)Nc1cc(-c2cccc(F)c2)sc1C(=O)N[C@H]1CCCNC1
Assay: log2 fold change, soluble protein after heating vs DMSO (PISA); higher = thermal stabilisation; K562 cells, 10 uM, 30 min; active = over 0.2 and 3.5 SD of the protein, either way, in both replicates (recomputed)
In short: (§1)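 K562 cells at 2×10^6 cells/mL were given 10 μM compound for 30 min. Aliquots then went through 3 min of heating across 48°C-58°C, were pooled, and were extracted in PBS with 0.5% NP-40 at 4°C, and the supernatant after 21,000xg for 90 min was quantified by TMTpro 16plex LC-MS/MS with channel sums equalised. Thermal stability relative to control samples, from duplicates, is given as log2 fold change.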

log2 fold change, inactive:
SFR1 isoform 2 (UniProt Q86XK3) 0.294
SEC61G (UniProt P60059) -0.239
SELENOP (UniProt P49908) 0.061
SINHCAF (UniProt Q9NP50) 0.677
SH3GL3 isoform 3 (UniProt Q99963) -0.049
SHANK2 isoform 3 (UniProt Q9UPX8) -0.275
SERPINB5 (UniProt P36952) 0.365

Compound: NC(=O)c1cnc(N[C@@H]2CCCC[C@@H]2N)nc1Nc1cccc(-n2nccn2)c1
Assay: as above
In short: as §1

log2 fold change, inactive:
SETD2 (UniProt Q9BYW2) -0.003
SHROOM4 (UniProt Q9ULL8) 0.035
SH2D2A isoform 2 (UniProt Q9NP31) 0.212
SHC1 (UniProt P29353) 0.149
SHROOM1 (UniProt Q2M3G4) 0.128
SERBP1 isoform 3 (UniProt Q8NC51) 0.037
SKAP2 (UniProt O75563) -0.138
SIAH2 (UniProt O43255) 0.007
SIRT3 (UniProt Q9NTG7) -0.091
SEPTIN7 isoform 2 (UniProt Q16181) 0.074
SF1 (UniProt H7C0N4) 0.062
SERPINB7 (UniProt O75635) -0.084
SEPTIN2 (UniProt B5MCX3) -0.195
SH3BGR (UniProt P55822) -0.039
SIX5 (UniProt Q8N196) -0.065

Compound: NC1(c2ccc(-c3nc4ccn5c(=O)[nH]nc5c4cc3-c3ccccc3)cc2)CCC1
Assay: as above
In short: as §1

log2 fold change, inactive:
SFR1 isoform 2 (UniProt Q86XK3) -0.129
SIK2 (UniProt Q9H0K1) -0.365
SEC61G (UniProt P60059) 0.043
SEMG1 (UniProt P04279) 2.9
SHROOM4 (UniProt Q9ULL8) -0.059
SELENOP (UniProt P49908) -0.047
SH2D2A isoform 2 (UniProt Q9NP31) -0.041
SERBP1 isoform 3 (UniProt Q8NC51) 0.068
SKAP2 (UniProt O75563) 0.043
SERPINB6, A0A2R8Y7E5 -0.176
SIAH2 (UniProt O43255) 0.363
SH3GL3 isoform 3 (UniProt Q99963) 0.08
SERAC1 (UniProt Q96JX3) -0.176
SIRT3 (UniProt Q9NTG7) -0.017
SEPTIN7 isoform 2 (UniProt Q16181) 0.234
SECISBP2 (UniProt Q96T21) 0.555
SFXN1 (UniProt D6RDG7) 0.135
SERPIND1 (UniProt P05546) 0.119
SF1 (UniProt H7C0N4) 0.09
SERPINB7 (UniProt O75635) 0.002
SERPINB5 (UniProt P36952) -0.007
SH3BGR (UniProt P55822) -0.143
SIX5 (UniProt Q8N196) -0.033
